This note sets out measurements from the supplement of paper PMC12819154, “High-throughput peptide-centric local stability assay extends protein–ligand identification to membrane proteins, tissues and bacteria” (Nature Structural & Molecular Biology, 2025).

By UniProt entry, the sequences of proteins in these tests, tags left out. Where a name states a change or a piece, a line headed by the entry shows the natural chain unless it says otherwise.
UniProt Q96T51: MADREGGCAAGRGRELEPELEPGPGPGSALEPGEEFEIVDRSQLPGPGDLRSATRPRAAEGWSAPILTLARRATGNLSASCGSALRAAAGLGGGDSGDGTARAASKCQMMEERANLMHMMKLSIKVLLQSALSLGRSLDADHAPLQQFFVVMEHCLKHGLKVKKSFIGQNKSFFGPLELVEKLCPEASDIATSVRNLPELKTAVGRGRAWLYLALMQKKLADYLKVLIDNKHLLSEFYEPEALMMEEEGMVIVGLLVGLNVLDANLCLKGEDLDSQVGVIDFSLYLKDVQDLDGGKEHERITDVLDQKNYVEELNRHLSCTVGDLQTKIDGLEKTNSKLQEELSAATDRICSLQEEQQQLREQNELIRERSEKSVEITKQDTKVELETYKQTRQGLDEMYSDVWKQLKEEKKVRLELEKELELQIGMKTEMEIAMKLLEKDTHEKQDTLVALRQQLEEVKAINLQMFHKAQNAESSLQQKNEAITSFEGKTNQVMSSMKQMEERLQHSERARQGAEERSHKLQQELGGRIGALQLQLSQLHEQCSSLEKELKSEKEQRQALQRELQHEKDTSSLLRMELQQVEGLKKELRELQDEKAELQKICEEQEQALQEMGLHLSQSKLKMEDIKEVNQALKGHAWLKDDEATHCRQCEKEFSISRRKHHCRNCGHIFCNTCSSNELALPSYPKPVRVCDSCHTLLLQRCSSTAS
UniProt Q96HP0: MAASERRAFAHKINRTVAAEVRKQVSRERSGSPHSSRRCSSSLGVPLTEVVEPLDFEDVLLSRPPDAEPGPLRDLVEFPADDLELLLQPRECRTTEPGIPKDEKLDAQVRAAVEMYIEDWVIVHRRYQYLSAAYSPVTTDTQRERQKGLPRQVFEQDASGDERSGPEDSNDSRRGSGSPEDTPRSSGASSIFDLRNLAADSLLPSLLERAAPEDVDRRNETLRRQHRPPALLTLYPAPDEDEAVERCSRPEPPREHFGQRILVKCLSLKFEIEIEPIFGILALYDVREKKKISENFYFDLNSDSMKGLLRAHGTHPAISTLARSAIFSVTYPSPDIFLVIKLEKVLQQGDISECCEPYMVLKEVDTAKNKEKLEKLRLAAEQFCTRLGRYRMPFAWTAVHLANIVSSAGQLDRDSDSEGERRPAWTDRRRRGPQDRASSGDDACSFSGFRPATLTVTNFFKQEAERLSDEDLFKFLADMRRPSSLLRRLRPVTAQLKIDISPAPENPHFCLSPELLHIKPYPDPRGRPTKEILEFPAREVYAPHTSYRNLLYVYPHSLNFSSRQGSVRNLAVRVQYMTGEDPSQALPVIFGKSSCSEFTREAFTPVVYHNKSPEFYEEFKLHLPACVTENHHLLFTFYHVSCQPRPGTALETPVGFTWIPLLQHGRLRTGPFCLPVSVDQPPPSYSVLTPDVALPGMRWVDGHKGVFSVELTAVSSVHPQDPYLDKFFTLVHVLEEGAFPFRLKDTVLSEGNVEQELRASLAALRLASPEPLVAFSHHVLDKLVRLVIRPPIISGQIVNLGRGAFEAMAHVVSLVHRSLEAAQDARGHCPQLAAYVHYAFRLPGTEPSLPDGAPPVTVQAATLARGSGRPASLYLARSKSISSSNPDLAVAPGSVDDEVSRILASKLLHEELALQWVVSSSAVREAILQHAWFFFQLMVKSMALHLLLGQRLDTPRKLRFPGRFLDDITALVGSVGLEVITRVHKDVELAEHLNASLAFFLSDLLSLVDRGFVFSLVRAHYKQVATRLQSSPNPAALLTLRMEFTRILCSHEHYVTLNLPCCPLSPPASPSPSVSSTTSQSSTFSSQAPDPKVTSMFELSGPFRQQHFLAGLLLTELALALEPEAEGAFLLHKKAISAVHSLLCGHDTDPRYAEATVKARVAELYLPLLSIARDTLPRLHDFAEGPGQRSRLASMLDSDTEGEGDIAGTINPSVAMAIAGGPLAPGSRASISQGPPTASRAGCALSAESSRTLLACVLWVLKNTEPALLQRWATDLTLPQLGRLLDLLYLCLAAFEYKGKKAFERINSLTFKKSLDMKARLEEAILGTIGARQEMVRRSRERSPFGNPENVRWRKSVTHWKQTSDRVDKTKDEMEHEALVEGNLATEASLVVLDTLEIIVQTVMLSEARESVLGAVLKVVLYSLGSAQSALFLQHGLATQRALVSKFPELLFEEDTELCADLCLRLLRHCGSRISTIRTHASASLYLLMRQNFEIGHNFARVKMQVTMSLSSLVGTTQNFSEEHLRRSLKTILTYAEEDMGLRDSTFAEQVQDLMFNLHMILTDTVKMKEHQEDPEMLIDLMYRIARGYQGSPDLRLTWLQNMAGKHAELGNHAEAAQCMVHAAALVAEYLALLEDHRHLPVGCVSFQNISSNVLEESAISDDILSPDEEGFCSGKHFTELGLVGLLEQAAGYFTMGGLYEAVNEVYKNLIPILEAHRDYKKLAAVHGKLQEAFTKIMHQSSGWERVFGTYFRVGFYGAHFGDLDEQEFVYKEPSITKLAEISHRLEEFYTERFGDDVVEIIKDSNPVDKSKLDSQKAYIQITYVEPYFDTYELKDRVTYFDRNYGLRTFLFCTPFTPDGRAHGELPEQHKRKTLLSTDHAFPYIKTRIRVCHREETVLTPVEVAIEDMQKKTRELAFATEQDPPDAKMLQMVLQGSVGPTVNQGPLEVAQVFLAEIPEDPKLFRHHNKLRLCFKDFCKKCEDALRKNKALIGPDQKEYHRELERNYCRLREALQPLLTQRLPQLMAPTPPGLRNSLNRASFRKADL
UniProt Q96PG8: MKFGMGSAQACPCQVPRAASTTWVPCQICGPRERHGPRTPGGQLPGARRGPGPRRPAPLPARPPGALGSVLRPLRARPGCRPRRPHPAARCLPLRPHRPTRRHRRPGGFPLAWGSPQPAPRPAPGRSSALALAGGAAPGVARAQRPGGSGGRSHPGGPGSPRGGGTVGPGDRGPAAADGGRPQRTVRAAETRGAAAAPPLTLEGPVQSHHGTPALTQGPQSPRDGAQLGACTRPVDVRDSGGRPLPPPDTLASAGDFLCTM
UniProt Q96N11, whole entry: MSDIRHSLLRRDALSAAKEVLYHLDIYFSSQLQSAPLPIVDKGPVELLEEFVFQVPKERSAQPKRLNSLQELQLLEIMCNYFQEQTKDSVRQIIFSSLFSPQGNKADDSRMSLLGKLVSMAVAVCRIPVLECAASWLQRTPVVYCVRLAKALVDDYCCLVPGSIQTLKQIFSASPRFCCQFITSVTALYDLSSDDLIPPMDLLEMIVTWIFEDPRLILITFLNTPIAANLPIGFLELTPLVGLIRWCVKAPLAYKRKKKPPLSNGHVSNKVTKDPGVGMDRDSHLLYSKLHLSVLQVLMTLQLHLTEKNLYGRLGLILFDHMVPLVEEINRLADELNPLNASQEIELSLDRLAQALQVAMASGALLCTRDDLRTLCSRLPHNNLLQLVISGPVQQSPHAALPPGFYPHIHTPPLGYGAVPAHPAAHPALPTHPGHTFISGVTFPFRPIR
UniProt Q96SB8: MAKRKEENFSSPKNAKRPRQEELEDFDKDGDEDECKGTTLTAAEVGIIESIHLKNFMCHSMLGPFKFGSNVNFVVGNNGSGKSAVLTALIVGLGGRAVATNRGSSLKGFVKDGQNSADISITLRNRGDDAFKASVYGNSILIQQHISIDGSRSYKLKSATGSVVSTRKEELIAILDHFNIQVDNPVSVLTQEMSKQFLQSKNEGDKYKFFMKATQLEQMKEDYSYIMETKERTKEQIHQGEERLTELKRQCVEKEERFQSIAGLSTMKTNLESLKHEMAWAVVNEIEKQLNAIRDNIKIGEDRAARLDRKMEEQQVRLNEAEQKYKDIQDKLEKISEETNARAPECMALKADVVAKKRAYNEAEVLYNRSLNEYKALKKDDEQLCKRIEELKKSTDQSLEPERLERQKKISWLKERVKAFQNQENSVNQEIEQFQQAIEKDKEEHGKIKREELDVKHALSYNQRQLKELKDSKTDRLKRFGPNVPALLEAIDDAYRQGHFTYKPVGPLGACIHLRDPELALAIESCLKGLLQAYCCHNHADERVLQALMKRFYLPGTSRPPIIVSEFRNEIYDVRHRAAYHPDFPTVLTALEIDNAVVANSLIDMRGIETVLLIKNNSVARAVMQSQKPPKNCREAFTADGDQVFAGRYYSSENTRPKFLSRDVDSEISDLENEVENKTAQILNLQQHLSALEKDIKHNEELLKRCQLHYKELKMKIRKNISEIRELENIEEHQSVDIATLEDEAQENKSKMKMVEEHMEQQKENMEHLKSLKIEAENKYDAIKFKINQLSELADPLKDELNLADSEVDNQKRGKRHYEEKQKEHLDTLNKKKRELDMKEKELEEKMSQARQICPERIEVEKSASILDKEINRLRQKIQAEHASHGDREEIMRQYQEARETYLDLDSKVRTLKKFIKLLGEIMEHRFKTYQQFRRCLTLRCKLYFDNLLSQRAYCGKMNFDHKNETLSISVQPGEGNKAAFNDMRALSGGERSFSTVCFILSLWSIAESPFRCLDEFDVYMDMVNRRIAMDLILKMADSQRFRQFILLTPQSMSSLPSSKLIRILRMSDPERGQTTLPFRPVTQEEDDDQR
UniProt Q96QU8: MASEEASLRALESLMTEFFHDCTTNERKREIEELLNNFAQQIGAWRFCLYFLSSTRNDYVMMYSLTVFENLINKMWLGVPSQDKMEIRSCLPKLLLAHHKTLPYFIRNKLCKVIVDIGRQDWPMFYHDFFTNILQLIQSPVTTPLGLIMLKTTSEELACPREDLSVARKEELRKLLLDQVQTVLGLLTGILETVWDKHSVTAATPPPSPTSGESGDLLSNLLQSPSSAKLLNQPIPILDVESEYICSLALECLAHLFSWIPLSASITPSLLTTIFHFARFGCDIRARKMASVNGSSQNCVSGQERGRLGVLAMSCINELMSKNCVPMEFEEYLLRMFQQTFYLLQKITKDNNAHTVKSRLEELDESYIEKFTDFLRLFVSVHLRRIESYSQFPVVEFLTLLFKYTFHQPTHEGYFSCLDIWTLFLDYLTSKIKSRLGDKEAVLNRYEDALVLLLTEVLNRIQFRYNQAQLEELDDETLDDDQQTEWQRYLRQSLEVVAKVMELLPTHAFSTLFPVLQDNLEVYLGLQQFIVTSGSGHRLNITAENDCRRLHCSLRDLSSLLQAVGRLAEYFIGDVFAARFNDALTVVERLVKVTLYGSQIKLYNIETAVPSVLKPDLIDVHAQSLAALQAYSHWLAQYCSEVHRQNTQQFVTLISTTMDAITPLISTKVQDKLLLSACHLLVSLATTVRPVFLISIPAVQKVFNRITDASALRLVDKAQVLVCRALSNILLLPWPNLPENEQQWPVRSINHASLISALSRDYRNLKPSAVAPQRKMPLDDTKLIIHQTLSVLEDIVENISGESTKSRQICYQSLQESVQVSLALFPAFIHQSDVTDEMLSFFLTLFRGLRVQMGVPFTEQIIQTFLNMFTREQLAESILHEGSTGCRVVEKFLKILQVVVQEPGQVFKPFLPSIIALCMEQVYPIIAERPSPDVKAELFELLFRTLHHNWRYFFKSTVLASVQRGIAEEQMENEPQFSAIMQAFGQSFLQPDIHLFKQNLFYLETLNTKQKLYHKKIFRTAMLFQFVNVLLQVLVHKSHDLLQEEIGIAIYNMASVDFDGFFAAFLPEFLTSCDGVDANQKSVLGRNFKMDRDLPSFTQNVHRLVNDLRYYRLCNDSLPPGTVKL
UniProt Q96SY0, whole entry: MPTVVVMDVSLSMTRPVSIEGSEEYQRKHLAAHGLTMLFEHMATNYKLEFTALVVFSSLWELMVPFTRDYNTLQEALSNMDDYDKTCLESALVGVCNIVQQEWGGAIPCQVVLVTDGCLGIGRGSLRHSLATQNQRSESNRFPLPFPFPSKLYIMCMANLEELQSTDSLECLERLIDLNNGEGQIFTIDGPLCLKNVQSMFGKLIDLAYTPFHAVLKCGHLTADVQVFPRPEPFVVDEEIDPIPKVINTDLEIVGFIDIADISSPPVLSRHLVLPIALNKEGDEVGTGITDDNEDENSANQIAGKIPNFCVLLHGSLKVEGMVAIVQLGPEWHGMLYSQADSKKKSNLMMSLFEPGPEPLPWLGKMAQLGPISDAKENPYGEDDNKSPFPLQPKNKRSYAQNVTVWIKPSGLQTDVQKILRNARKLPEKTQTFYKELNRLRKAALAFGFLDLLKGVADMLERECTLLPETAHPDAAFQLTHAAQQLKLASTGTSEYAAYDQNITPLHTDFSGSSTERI
UniProt Q96LJ8: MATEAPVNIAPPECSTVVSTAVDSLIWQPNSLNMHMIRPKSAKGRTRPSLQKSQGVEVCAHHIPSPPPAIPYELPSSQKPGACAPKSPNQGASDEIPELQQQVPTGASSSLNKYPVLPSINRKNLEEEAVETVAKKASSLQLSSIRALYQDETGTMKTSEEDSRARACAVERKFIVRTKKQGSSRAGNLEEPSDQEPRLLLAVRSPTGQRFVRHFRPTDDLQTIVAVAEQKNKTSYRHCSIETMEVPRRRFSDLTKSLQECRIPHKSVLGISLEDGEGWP

The list shows a part of the results. Most values lie at the level of the controls, where differences are scatter.

Compound in the assay: CN[C@@H]1C[C@H]2O[C@@](C)([C@@H]1OC)n1c3ccccc3c3c4c(c5c6ccccc6n2c5c31)C(=O)NC4 [staurosporine]
Nature of the assay: log2 fold change of tryptic peptide abundance, ligand vs vehicle (limited proteolysis) (log2 ratio); higher = more trypsin-susceptible (destabilized). The note with it: ligand concentration: 20 uM; sample: K562 cleared lysate; digestion: 4 min, 22 C (HT-PELSA RT4min, Orbitrap Astral).
Consider “RSRC1 (peptide sequence: LQLVLEAAAK, peptide start residue: 187) (UniProt Q96IZ7)”, for which the log2 fold change is -0.142.
On to “ATAD5 (peptide sequence: SKVTEEIAIPLRR, peptide start residue: 718) (UniProt Q96QE3)”, for which the log2 fold change came out at 0.435.
For “NEDD4L (peptide sequence: KPADIPNRFEMK, peptide start residue: 610) (UniProt Q96PU5)”, the log2 fold change was found to be 0.397.
With “ZC3H10 (peptide sequence: GGGGTGGGSTGSVLPGRR, peptide start residue: 169) (UniProt Q96K80)” the figure was -0.178; with “RUFY1 (peptide sequence: AAAGLGGGDSGDGTAR, peptide start residue: 87) (UniProt Q96T51)”, -0.172; with “DOCK6 (peptide sequence: ESVLGAVLK, peptide start residue: 1410) (UniProt Q96HP0)”, -0.607.
Turning to “CDC5L (peptide sequence: EIDDTYIEDAADVDAR, peptide start residue: 506) (UniProt Q99459)”, the log2 fold change is -0.443.
Take “UBL7 (peptide sequence: LKDDQTLDFYGIQPGSTVHVLRK, peptide start residue: 70) (UniProt Q96S82)”: the log2 fold change came out at 0.72.
For “C5orf34 (peptide sequence: FLTSDISEER, peptide start residue: 280) (UniProt Q96MH7)”, the log2 fold change turned out to be 0.196.
As for “SLC38A2 (peptide sequence: SHYADVDPENQNFLLESNLGKK, peptide start residue: 39) (UniProt Q96QD8)”, the log2 fold change is -0.231.
With “RNF2 (peptide sequence: SKGESNQMNLDTASEK, peptide start residue: 274) (UniProt Q99496)”, the log2 fold change came to 0.198.
“SNX18 (peptide sequence: SENPGEISLR, peptide start residue: 13) (UniProt Q96RF0)”: the log2 fold change is -0.16.
As to “UniProt Q96S65 (peptide sequence: SFTPLSILKR, peptide start residue: 66)”, the log2 fold change was found to be 0.704.
With “UniProt Q96PG8 (peptide sequence: DGAQLGACTRPVDVR, peptide start residue: 224)”, the log2 fold change is -0.193.
The figure for “CCDC115 (peptide sequence: DGLQLAADIASLQNR, peptide start residue: 143) (UniProt Q96NT0)” is -0.234; for “C7orf26 (peptide sequence: IPVLECAASWLQR, peptide start residue: 127) (UniProt Q96N11)” it is -0.295; for “SMC6 (peptide sequence: TAQILNLQQHLSALEK, peptide start residue: 679) (UniProt Q96SB8)” it is 0.273.
With “KIF16B (peptide sequence: ITVLDETWTVFRR, peptide start residue: 1208) (UniProt Q96L93)”, the log2 fold change was 1.1.
Turning to “TCEANC2 (peptide sequence: IQNSPQKK, peptide start residue: 11) (UniProt Q96MN5)”, the log2 fold change came to 0.534.
Take “ADO (peptide sequence: AEDLNIAPR, peptide start residue: 63) (UniProt Q96SZ5)”: the log2 fold change is -0.106.
Consider “UIMC1 (peptide sequence: IIMADKEVGNKEDAEK, peptide start residue: 475) (UniProt Q96RL1)”, for which the log2 fold change is -0.181.
As to “UniProt Q96MW7 (peptide sequence: ILLLIDNAPSHPR, peptide start residue: 297)”, the log2 fold change was -0.363.
With “NEK1 (peptide sequence: IVQNILGNEHQHLYAK, peptide start residue: 1226) (UniProt Q96PY6)”, the log2 fold change was found to be 0.91.
Take “INTS4 (peptide sequence: LLLAYNSSAR, peptide start residue: 913) (UniProt Q96HW7)”: the log2 fold change came out at 0.152.
For the target “AJUBA (peptide sequence: LYAQRPAGFGCQESR, peptide start residue: 214) (UniProt Q96IF1)”, the log2 fold change was -0.137.
“XPO6 (peptide sequence: TTSEELACPR, peptide start residue: 152) (UniProt Q96QU8)”: the log2 fold change is -0.205.
The figure for “ITCH (peptide sequence: SQGQLNEKPLPEGWEMR, peptide start residue: 471) (UniProt Q96J02)” is -0.321; for “YTHDC1 (peptide sequence: SAHLTNPWNEHKPVK, peptide start residue: 458) (UniProt Q96MU7)” it is 0.387.
On to “UniProt Q96SY0 (peptide sequence: SESNRFPLPFPFPSK, peptide start residue: 137)”, for which the log2 fold change came out at 0.66.
Regarding “NSMCE2 (peptide sequence: KAYCPQIGCSHTDIR, peptide start residue: 207) (UniProt Q96MF7)”, the log2 fold change came out at 0.608.
As for “UBXN10 (peptide sequence: ALYQDETGTMK, peptide start residue: 147) (UniProt Q96LJ8)”, the log2 fold change came to 0.0896.
“PAGE5 (peptide sequence: VLEAGEGQL, peptide start residue: 122) (UniProt Q96GU1)”: the log2 fold change is -0.113.
On to “GMPPA (peptide sequence: IPAEVLILNSIVLPHK, peptide start residue: 393) (UniProt Q96IJ6)”, for which the log2 fold change amounted to 0.156.
With “UniProt Q96HE7 (peptide sequence: FDGILTEGEGPRR, peptide start residue: 288)” the figure was 0.524; with “TBCB (peptide sequence: IHVIDHSGAR, peptide start residue: 85) (UniProt Q99426)”, 1.11; with “TRIM47 (peptide sequence: NHTLSELLQLR, peptide start residue: 70) (UniProt Q96LD4)”, -0.388.
As to “UHRF1 (peptide sequence: QSLVLPHSTK, peptide start residue: 75) (UniProt Q96T88)”, the log2 fold change was 0.719.
